Reference: US20200345863 (published 2020)

Test: general procedure: Fmoc solid-phase peptide synthesis; NovaGEL Rink Amide (0.63 mmol/g); 2-chlorotrityl chloride (1.1 mmol/g); Ramage ChemMatrix ([…]); HATU/DIPEA; bromoacetic acid/diisopropylcarbodiimide (submonomer)
Settings: for conjugation yield: conjugation step; for isolated mass / isolated yield: whole synthesis; for isolated yield: based on initial resin loading, scale of the general procedure typically 500 mg or 1000 mg resin; for step yield: late stage modification step

Substance	conjugation yield [%]	isolated mass [mg]	isolated yield [%]	step yield [%]
Fmoc-D-Lys(glucuronideMMAE)-PSAR6	38			
Fmoc-D-Lys(glucuronideMMAE)-PSAR12	28			
MAL-Glu(glucuronideMMAE)-CH2—CH2—PSAR6		5.8	14	
MAL-Glu(glucuronideMMAE)-CH2—CH2—PSAR12		4.6	20	
MAL-Glu(glucuronideMMAE)-CH2—CH2—PSAR18		2.4	14	
MAL-Lys(glucuronideMMAE)-PSAR6				52
MAL-Lys(glucuronideMMAE)-PSAR12				51
